# About 22,000 (6.9%) of roughly 320,000 compounds were called active. Inconclusive means that the source gave no clear call. Such entries were picked first, then a sample of the others. Calls follow the shape of the dose curve; as a rule, active = well fitted inhibition curve with a large enough effect; inconclusive = small, poorly fitted or top-dose-only effect, or another doubt; inactive = no such curve, though single readings can be large or run the other way. Where the call is inconclusive, the potency comes from a doubtful curve fit.
# Test: Primary qHTS for delayed death inhibitors of the malarial parasite plastid, 96 hour incubation
# Conditions: P. falciparum luciferase reporter growth; series mostly up to 28.7 µM; activity change, negative = inhibition: at the top concentration
# How it was run: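 Infected RBCs, 2% Hct / 0.05% parasitemia final; luciferase-reporter P. falciparum; cpd 96 h, 37 C, 5% CO2; luciferase detection reagent; luminescence.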
# % is scaled to controls: 0 for no effect and ±100 for the full control effect; potency is read from the fitted curve at half-maximal effect.
Compound,Potency,"activity change, negative = inhibition"
COc1ccc(CCNC(=O)CN(c2ccc(OC)c(OC)c2)S(=O)(=O)c2ccccc2)cc1OC,"inconclusive: 10.4 µM [inhibitor, single point]",
CC(C)S(=O)(=O)c1csc(C(=O)Nc2ccc(F)cc2)c1N,,inactive: 328%
C=CCSc1nc2ccccc2c(=O)n1Cc1ccccc1,,inactive: 84.5%
Cc1[nH]c(=O)[nH]c(=O)c1S(=O)(=O)N(CC(C)C)CC(C)C,,inactive: 0.113%
CCc1ccccc1N1C(=O)C2CC=CCC2C1=O (centres undefined),"inconclusive: 1.47 µM [inhibitor, partial curve, poor fit]",
CCN1C(=O)C(O)(CC(=O)/C=C/C=C/c2ccccc2)c2ccccc21 (centres undefined),"inconclusive: 1.04 µM [inhibitor, partial curve, poor fit]",
COC(=O)C1C(=O)C2=C(CC1C)Nc1ccccc1NC2c1cccs1 (centres undefined),"inconclusive: 11.7 µM [inhibitor, single point]",
CC1CC(C)CN(c2nc3c(c(=O)n(C)c(=O)n3C)n2CCSc2ncccn2)C1 (centres undefined),"inconclusive: 16.5 µM [inhibitor, single point]",
N#C/C(=C/c1cn(-c2ccccc2)nc1-c1cccc(OCc2ccccc2)c1)C(=O)NCCCn1ccnc1,active: 2.08 µM,
Cc1ccc(OCc2nc(-c3ccccn3)no2)c(Br)c1,active: 2.33 µM,
O=C(O)CCC(=O)N1CCc2cc(S(=O)(=O)N3CCN(c4ccc(F)cc4)CC3)ccc21,active: 14.7 µM,
Cc1noc(-c2ccccc2)c1NC(=O)Nc1ccc(Cl)cc1,"inconclusive: 10.4 µM [inhibitor, single point]",
NS(=O)(=O)c1ccc(S(=O)(=O)N(Cc2ccccc2F)CC2CCCO2)cc1 (centres undefined),active: 13.1 µM,
COCCCn1c(SCC(=O)O)nc2cc(OC)c(OC)cc2c1=N,"inconclusive: 10.4 µM [inhibitor, single point]",
CC(=O)c1c(C)[nH]c(C(=O)NCc2ccccc2)c1C,"inconclusive: 16.5 µM [inhibitor, single point]",
CC(=C1C(=O)c2ccccc2C1=O)N1CCN(Cc2ccccc2)CC1,"inconclusive: 10.4 µM [inhibitor, partial curve]",
O=C(NCC(c1ccco1)N1CCCCC1)c1ccc2c(c1)S(=O)(=O)c1ccccc1C2=O (centres undefined),"inconclusive: 5.22 µM [inhibitor, partial curve, poor fit]",
CC(=O)NCCn1c(SCC(=O)NC2CCCCC2)nc2ccccc2c1=O,"inconclusive: 0.0047 µM [inhibitor, full curve, poor fit]",
O=C(Nc1cccc(C(F)(F)F)c1)c1cccnn1,,inactive: -5.6%

# A second format for some results above.
Compound	Potency	activity change, negative = inhibition
CC(=O)c1c(C)[nH]c(C(=O)NCc2ccccc2)c1C	inconclusive: 16.5 µM [inhibitor, single point]	
CC(=C1C(=O)c2ccccc2C1=O)N1CCN(Cc2ccccc2)CC1	inconclusive: 10.4 µM [inhibitor, partial curve]	
O=C(NCC(c1ccco1)N1CCCCC1)c1ccc2c(c1)S(=O)(=O)c1ccccc1C2=O (centres undefined)	inconclusive: 5.22 µM [inhibitor, partial curve, poor fit]	
CC(=O)NCCn1c(SCC(=O)NC2CCCCC2)nc2ccccc2c1=O	inconclusive: 0.0047 µM [inhibitor, full curve, poor fit]	
